Binding data for 2 substances are collected here from paper PMC10488071.

By UniProt entry, the sequences of proteins in these tests, tags left out.
UniProt O09106: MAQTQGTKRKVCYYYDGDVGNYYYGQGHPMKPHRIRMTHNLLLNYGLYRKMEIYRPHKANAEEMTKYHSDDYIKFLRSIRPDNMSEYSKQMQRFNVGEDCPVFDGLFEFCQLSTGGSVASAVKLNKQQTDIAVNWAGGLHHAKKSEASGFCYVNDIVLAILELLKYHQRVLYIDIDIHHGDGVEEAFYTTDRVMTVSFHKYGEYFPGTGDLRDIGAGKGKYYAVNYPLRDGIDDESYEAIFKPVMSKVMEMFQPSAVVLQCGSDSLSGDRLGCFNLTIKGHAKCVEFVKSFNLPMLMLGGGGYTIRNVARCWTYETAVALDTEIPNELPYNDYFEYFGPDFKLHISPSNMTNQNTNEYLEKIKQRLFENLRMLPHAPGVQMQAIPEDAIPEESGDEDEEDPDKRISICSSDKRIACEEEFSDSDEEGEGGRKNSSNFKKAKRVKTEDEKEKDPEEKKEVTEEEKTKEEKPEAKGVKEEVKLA
UniProt Q8VDP4: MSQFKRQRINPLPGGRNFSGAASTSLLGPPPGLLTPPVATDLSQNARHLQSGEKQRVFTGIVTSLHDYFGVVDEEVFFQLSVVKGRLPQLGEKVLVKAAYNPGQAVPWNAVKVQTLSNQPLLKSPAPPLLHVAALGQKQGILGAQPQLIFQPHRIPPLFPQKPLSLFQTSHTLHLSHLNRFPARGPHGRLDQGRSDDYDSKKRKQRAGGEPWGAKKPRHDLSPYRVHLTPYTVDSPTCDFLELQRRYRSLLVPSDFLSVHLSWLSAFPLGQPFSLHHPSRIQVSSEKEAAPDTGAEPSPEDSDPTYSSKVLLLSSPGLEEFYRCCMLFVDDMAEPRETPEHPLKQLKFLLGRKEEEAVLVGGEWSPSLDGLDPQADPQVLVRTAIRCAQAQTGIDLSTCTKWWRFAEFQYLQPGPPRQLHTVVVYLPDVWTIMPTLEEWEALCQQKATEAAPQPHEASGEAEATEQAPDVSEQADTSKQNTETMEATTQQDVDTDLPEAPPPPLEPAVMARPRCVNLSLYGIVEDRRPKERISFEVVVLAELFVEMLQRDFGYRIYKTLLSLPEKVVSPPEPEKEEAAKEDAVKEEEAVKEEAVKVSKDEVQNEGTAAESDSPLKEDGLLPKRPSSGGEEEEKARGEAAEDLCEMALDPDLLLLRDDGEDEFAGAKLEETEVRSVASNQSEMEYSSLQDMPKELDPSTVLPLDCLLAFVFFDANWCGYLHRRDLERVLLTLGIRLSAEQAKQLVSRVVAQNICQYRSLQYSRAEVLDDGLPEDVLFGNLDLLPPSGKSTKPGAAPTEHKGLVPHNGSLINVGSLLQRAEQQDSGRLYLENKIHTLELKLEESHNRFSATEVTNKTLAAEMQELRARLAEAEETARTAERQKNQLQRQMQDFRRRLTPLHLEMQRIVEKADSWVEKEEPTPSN

Results are given in words; binding and its absence hold for the method and conditions named. In cells and extracts the contact can be indirect. Some entries that bind do so weakly or less than the wild type.

In test [1] the target is histone deacetylase 1 (HDAC1) (mouse (endogenous in IDG-SW3)) (UniProt O09106). The experiment in a line: co-IP; reciprocal: nuclear extracts from IDG-SW3 cells precipitated with anti-HDAC1 or anti-HDAC2 antibody or control IgG on Dynabeads Protein G, 4 degrees overnight, 50 mM Tris-HCl pH 8.0, 0.1 mM EDTA, 5% glycerol, 100 mM KCl, 0.1% NP-40; immunoblot for CCAR2. (In general: Immunoblotting shows a protein as a band on a membrane.)

Test [2] deals with CCAR2 (mouse (endogenous in IDG-SW3)) (UniProt Q8VDP4). Description: co-IP; nuclear extracts from IDG-SW3 cells (also mock and lncRNA953Rik-overexpressing cells) precipitated with anti-CCAR2 antibody or control IgG on Dynabeads Protein G, 4 degrees overnight, 50 mM Tris-HCl pH 8.0, 0.1 mM EDTA, 5% glycerol, 100 mM KCl, 0.1% NP-40; immunoblot for HDAC1, HDAC2, HDAC3.

As to CCAR2 (from UniProt Q8VDP4 1-922), the binding entry in test [1] is given as “binds”.

Regarding “histone deacetylase 1 (HDAC1) (from UniProt O09106 1-482)”, in test [2], the binding entry is given as “binds”.
